From patent US5228957A, “Separation of methyl T-butyl ether from close boiling C5 hydrocarbons by extractive distillation” (priority 1993, dated 1993)

Assay: Extractive distillation agent separating methyl t-butyl ether from n-pentane-cyclopentane mixtures (vapor-liquid equilibrium still)
Type: physicochemical

CC(=O)N(C)C [Dimethylacetamide]
Relative Volatility Pnt/MTBE: 3.5
